These are yes or no findings as the source states them, for the method shown. Binding calls can cover weak binding; strength is not graded here.

In this test the target is PCSK9Δhelix (human). The experiment in a line: phage spot ELISA.
As to SGGSIPWNLERITPPR [SEQ ID NO 382], the binding result is reported as “binds”.

As for TAFTSWEEYLDWVGSGDCLRYRVGSSCS [SEQ ID NO 360], the binding entry was “binds”.

Consider TAFTSWEEYLDWVGSGPLLWNLQKVH [SEQ ID NO 310], for which the binding entry is “binds”.

As for TAFTSWEEYLDWVGSGSETGLGTYYG [SEQ ID NO 350], the binding result is given as “binds”.

Take SGHASKGMVLSG [SEQ ID NO 381]: the binding entry is reported as “binds”.

As to TAFTSWEEYLDWVGSGKNNYAYLINMPRAPGI [SEQ ID NO 325], the binding entry is reported as “binds”.

In the case of SGMVYVDRGVRVFT [SEQ ID NO 368], the binding entry was “binds”.

For TAFTSWEEYLDWVGSGQTTYLRVSSS [SEQ ID NO 341], the binding entry is “binds”.

On to TAFTSWEEYLDWVGSGVVLWNHSRIL [SEQ ID NO 313], for which the binding result is “binds”.

For TAFTSWEEYLDWVGSGCYPLCRVG [SEQ ID NO 355], the binding result is reported as “binds”.

Turning to SGCWTYLRGGCSVT [SEQ ID NO 373], the binding result was “binds”.

Regarding SGAGKLDLSG [SEQ ID NO 377], the binding result was “binds”.

Consider TAFTSWEEYLDWVGSGQISYLRNA [SEQ ID NO 342], for which the binding result is “binds”.

Regarding TAFTSWEEYLDWVGSGGDCGYHYMCSMT [SEQ ID NO 345], the binding result is on record as “binds”.

As to SGACLNHFVSGNMIRC [SEQ ID NO 371], the binding result is recorded as “binds”.

Turning to TAFTSWEEYLDWVGSGGPWNLNRV [SEQ ID NO 309], the binding entry is on record as “binds”.

Turning to TAFTSWEEYLDWVGSGMPWNLARIER [SEQ ID NO 318], the binding entry is listed as “binds”.

With SGLAPTVSDS [SEQ ID NO 375], the binding entry is reported as “binds”.

As to TAFTSWEEYLDWVGSGGCVKYRGSVSCQESKT [SEQ ID NO 323], the binding entry is recorded as “binds”.

As to TAFTSWEEYLDWVGSGNCWSSLRGICENLG [SEQ ID NO 307], the binding entry was “binds”.

Regarding TAFTSWEEYLDWVGSGVCSDHYIGGKEVRC [SEQ ID NO 348], the binding entry is given as “binds”.

As for TAFTSWEEYLDWVGSGCWTYLRGGCSVT [SEQ ID NO 339], the binding entry is listed as “binds”.

In the case of TAFTSWEEYLDWVGSGGDCYPHCRLV [SEQ ID NO 359], the binding entry was “binds”.

Turning to TAFTSWEEYLDWVGSGSCSWNVERIRGCSV [SEQ ID NO 311], the binding entry is reported as “binds”.

TAFTSWEEYLDWVGSGNMCYLRGKMDCNIV [SEQ ID NO 347]: the binding result was “binds”.

For TAFTSWEEYLDWVGSGMVYVDRGVRVFT [SEQ ID NO 322], the binding result is “binds”.

Turning to TAFTSWEEYLDWVGSGCLDRSGGCYTREGYLS [SEQ ID NO 353], the binding entry is “binds”.

Take TAFTSWEEYLDWVGSGEHQFYSYRGVDVYR [SEQ ID NO 324]: the binding entry was “binds”.

For the molecule TAFTSWEEYLDWVGSGRCGLAWCVVLVDQ [SEQ ID NO 365], the binding entry is “binds”.

Turning to SGRNGSGYINRGIEIW [SEQ ID NO 380], the binding result was “binds”.

On to TAFTSWEEYLDWVGSGGEYLWNLKRLES [SEQ ID NO 320], for which the binding entry is on record as “binds”.

Turning to TAFTSWEEYLDWVGSGCWNLKRIGSQGC [SEQ ID NO 6], the binding entry is “binds”.

As for SGNALWNHDRLT [SEQ ID NO 379], the binding entry was “binds”.

For the molecule TAFTSWEEYLDWVGSGVLWNHSRI [SEQ ID NO 308], the binding result is “binds”.

As to SGTPEMPAML [SEQ ID NO 374], the binding result is reported as “binds”.

As to TAFTSWEEYLDWVGSGSPCRVGYTPC [SEQ ID NO 351], the binding entry was “binds”.

On to TAFTSWEEYLDWVGSGGHPLWNLSRI [SEQ ID NO 316], for which the binding entry is “binds”.

For the molecule SGEHQFYSYRGVDVYR [SEQ ID NO 370], the binding entry was “binds”.

Turning to SGSYRGAWSVFGGSTD [SEQ ID NO 372], the binding entry is on record as “binds”.

TAFTSWEEYLDWVGSGRGEVYDKGGVIVHL [SEQ ID NO 343]: the binding entry is listed as “binds”.

Regarding TAFTSWEEYLDWVGSGRGGYELNIPR [SEQ ID NO 326], the binding entry was “binds”.

As for TAFTSWEEYLDWVGSGCYPLCRVL [SEQ ID NO 364], the binding result was “binds”.

For the molecule TAFTSWEEYLDWVGSGKCDSHYIRGVVACH [SEQ ID NO 356], the binding entry was “binds”.

As to SGPRTYLRGLVD [SEQ ID NO 366], the binding result is given as “binds”.

As to TAFTSWEEYLDWVGSGNELWNINRLRSS [SEQ ID NO 317], the binding entry was “binds”.

In the case of TAFTSWEEYLDWVGSGALWNMRRVESVAFR [SEQ ID NO 319], the binding result is recorded as “binds”.

For the molecule TAFTSWEEYLDWVGSGTRYADRGVMVYSLS [SEQ ID NO 321], the binding entry is “binds”.

With TAFTSWEEYLDWVGSGGCGYRYMCDMINGL [SEQ ID NO 358], the binding entry was “binds”.

With TAFTSWEEYLDWVGSGKLWNLGRV [SEQ ID NO 306], the binding entry was “binds”.

On to TAFTSWEEYLDWVGSGVPWNLAKI [SEQ ID NO 315], for which the binding entry is “binds”.

For the molecule TAFTSWEEYLDWVGSGGREMRSVIQM [SEQ ID NO 344], the binding entry is “binds”.

Regarding TAFTSWEEYLDWVGSGKLWNLTRISS [SEQ ID NO 312], the binding result is given as “binds”.

With TAFTSWEEYLDWVGSGRCESKGWANTCVSE [SEQ ID NO 362], the binding result was “binds”.

For the molecule TAFTSWEEYLDWVGSGVPWNLARL [SEQ ID NO 314], the binding entry was “binds”.

With TAFTSWEEYLDWVGSGSSTWHFVGGVRV [SEQ ID NO 354], the binding result is given as “binds”.

For SGDTRSQLSH [SEQ ID NO 376], the binding entry is recorded as “binds”.

Take SGNCWSSLRGICENLG [SEQ ID NO 367]: the binding result is “binds”.

With SGGCVKYRGSVSCQESKT [SEQ ID NO 369], the binding entry is “binds”.

In the case of TAFTSWEEYLDWVGSGNCARLYSHQRDYSQVC [SEQ ID NO 352], the binding entry is listed as “binds”.

As for TAFTSWEEYLDWVGSGQELPNHRRLS [SEQ ID NO 346], the binding entry is on record as “binds”.

For TAFTSWEEYLDWVGSGPRTYLRGLVD [SEQ ID NO 340], the binding result is on record as “binds”.

Values taken from US20200283478A1.
